The target in assay [1] is human cationic amino acid transporter-1 (hCAT1) on 911-hCAT1-k08 cells (human) (UniProt P30825). In words: flow cytometry, 10^11 phage on 911-pcDNA3 and 911-hCAT1(k08) cells. (In general: Flow cytometry measures light scatter and fluorescence of single cells or particles in a stream.)
The target is the same in assay [2]. In words: cell binding of phage, titering on E. coli.

Amino acid sequences for entries named in this document (tags omitted).
UniProt P30825: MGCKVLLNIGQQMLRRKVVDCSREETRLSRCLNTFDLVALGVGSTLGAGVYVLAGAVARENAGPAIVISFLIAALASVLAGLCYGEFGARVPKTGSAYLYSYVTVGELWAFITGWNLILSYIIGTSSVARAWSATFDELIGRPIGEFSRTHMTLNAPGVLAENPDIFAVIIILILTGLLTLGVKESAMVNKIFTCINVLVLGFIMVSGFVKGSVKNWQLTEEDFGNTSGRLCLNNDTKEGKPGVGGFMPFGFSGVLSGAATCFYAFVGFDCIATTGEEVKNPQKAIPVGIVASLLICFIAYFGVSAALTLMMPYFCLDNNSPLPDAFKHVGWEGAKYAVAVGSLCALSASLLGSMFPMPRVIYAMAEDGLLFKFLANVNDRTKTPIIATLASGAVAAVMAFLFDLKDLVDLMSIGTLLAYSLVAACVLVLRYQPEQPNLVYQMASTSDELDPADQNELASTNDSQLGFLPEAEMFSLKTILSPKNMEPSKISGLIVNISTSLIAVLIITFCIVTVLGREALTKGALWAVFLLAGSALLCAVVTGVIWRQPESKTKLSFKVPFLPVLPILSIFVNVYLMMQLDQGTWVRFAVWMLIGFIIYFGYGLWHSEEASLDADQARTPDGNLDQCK

These are yes or no findings as the source states them, for the method shown. Some results given as binding are weak or reduced against the parent protein; the word gives no strength.

Consider “cloned … (SEQ ID NO: 1) displaying m13 phage (from UniProt P69168 19-424) (peptide)”, for which the binding entry in assay [1] and in assay [2] was “binds” in each case.

Source of the values: patent US20030166287A1.
